Source: PubChem BioAssay AID1259424 (University of Nebraska Medical Center, 2018)

- Aim: 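Seek colon cancer survival genes behaving like KSR1, using a six-gene signature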 (primary screen)
- Cell system: human HCT116 colon cancer cells
- Knock-down reagent: siRNA pool against human genes, 50 nM
- Measured: 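Log2 levels of six mRNAs (branched-DNA multiplex), adjusted by two reference genes and the non-targeting median, then scored against the average KSR1 knockdown pattern as Pearson r and euclidean distance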
- Direction: mean correlation with KSR1 profile: higher = expression change more like KSR1 knockdown; mean distance from KSR1 profile: higher = expression change less like KSR1 knockdown
Here is an unselected part of about 14,000 reagents. 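Higher correlation or smaller distance means closer resemblance to KSR1 loss; control wells, including KSR1 knockdowns, recur on many plates.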 Not all columns of the deposit are shown. No sequences are given here. Not given: the time to read-out.

SLC5A5: mean correlation with KSR1 profile = -0.423; mean distance from KSR1 profile = 3.52
FIBP: mean correlation with KSR1 profile = 0.86; mean distance from KSR1 profile = 0.899
C10orf88: mean correlation with KSR1 profile = 0.641; mean distance from KSR1 profile = 1.28
TNPO1: mean correlation with KSR1 profile = 0.382; mean distance from KSR1 profile = 1.49
MCHR2: mean correlation with KSR1 profile = 0.691; mean distance from KSR1 profile = 1.47
QRSL1: mean correlation with KSR1 profile = -0.261; mean distance from KSR1 profile = 2.18
AHNAK: mean correlation with KSR1 profile = 0.86; mean distance from KSR1 profile = 2.24
ASCL3: mean correlation with KSR1 profile = -0.111; mean distance from KSR1 profile = 3.18
WRNIP1: mean correlation with KSR1 profile = 0.326; mean distance from KSR1 profile = 1.79
DPY19L1: mean correlation with KSR1 profile = -0.0926; mean distance from KSR1 profile = 1.72
SP110: mean correlation with KSR1 profile = 0.359; mean distance from KSR1 profile = 1.74
ERMARD: mean correlation with KSR1 profile = 0.234; mean distance from KSR1 profile = 0.718

Part of the list above in another layout.
{"target": "DPY19L1", "mean correlation with KSR1 profile": -0.0926, "mean distance from KSR1 profile": 1.72}
{"target": "SP110", "mean correlation with KSR1 profile": 0.359, "mean distance from KSR1 profile": 1.74}

Further results follow:
TCEAL7: mean correlation with KSR1 profile = -0.376; mean distance from KSR1 profile = 1.82
MYBL1: mean correlation with KSR1 profile = 0.0683; mean distance from KSR1 profile = 1.53
TMEM63C: mean correlation with KSR1 profile = 0.447; mean distance from KSR1 profile = 1.94
TMED2: mean correlation with KSR1 profile = 0.253; mean distance from KSR1 profile = 1.17
FBXL9P: mean correlation with KSR1 profile = -0.421; mean distance from KSR1 profile = 3.09
SS18: mean correlation with KSR1 profile = 0.179; mean distance from KSR1 profile = 1.67
EIF5: mean correlation with KSR1 profile = -0.301; mean distance from KSR1 profile = 1.8
